Values quoted from earlier work, collected in US20140134197A1, “Mimotopic Peptides for the Diagnosis and Treatment of Multiple sclerosis” (priority 2011, published 2014).
For at least one compound, name, drawing or mass did not settle the structure.

Settings: Tables 3a-3e; from cited literature; cited from earlier work

Row | SMILES | Immunosuppressive Effects
1 | CC(C)OC(=O)C(C)(C)Oc1ccc(C(=O)c2ccc(Cl)cc2)cc1 [Fenofibrate] | A Peroxisome Proliferator-
2 | CC[C@H](C)C(=O)O[C@H]1C[C@H](O)C=C2C=C[C@H](C)[C@H](CC[C@@H](O)C[C@@H](O)CC(=O)O)[C@H]21 [Pravastatin] | B. Lymphocyte and T.
